# Results of single-concentration screens

Measurements from “University of Dundee, Small-Polar-MMV Screening Library” (2021), ChEMBL document CHEMBL3988442.

A: 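Whole-parasite assay of Trypanosoma brucei over 72 hours; the read-out is not stated. Concentration: 30 µM. Direction is inferred from retests: higher values go with stronger inhibition. Values scatter widely below zero; nearly all retest evidence comes from the higher of the two concentrations used. About 64,000 compounds were tested under these conditions; 1.5% (about 940) showed 50% or more at least once.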
B: 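Assay of Toxoplasma gondii numbers, read through their beta-galactosidase reporter with a colour substrate. Concentration: 10 µM. Higher reads as fewer parasites (inferred from which compounds were picked for retests). Size under these conditions: about 67,000 compounds, about 260 of them at 50% or above in at least one test.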

Values are the deposited “Percent Effect”, in %. How 0% and 100% were set is not recorded. Most values in the screen are low, and negative values occur. This is an unselected part of the compounds tested.

{"compound": "COc1cccc([C@H]2CN(C(=O)c3noc4c3CCCC4)C[C@@H]2N)c1", "B": -18.13}
{"compound": "CC(=O)Cn1nc(-c2ccccc2F)ccc1=O", "A": -46.4, "B": 6.871}
{"compound": "O=C(Nc1cc(N2CCOCC2)ncn1)c1cnccn1", "A": 4.795, "B": 3.218}
{"compound": "O=C(CN1CCCCC1Cn1cncn1)NCCc1ccsc1", "stereo": "configuration not stated", "B": 18.14}
{"compound": "COC(=O)c1cccc(C(=O)N2CCN(C(=O)N(C)C)CC2(C)C)c1", "A": -4.64, "B": -6.596}
{"compound": "CCc1nc(NS(=O)(=O)c2ccc(C)cc2Cl)no1", "A": 33.48, "B": -4.736}
{"compound": "OCCOc1cc(F)ccc1NCc1cccc(F)c1F", "A": 10.25, "B": -6.028}
{"compound": "O=C(c1cc(Br)ccc1-n1cnnn1)N1CCCC1", "A": -19.09, "B": 2.818}
{"compound": "Cc1c(C(=O)N(C)CC(F)(F)F)nnn1-c1ccc(F)cc1", "A": 9.82, "B": -12.39}
{"compound": "COc1ccc(OCC(=O)NS(=O)(=O)c2cc(F)ccc2F)cc1", "A": -21, "B": -1.269}
{"compound": "CN(CC(=O)NCC(C)(C)c1ccc2c(c1)OCO2)c1cnccn1", "A": -47.6, "B": 0.8974}
{"compound": "CN(Cc1ccco1)C1CCC12CCN(C(=O)C1CCOCC1)CC2.O=C(O)C(F)(F)F", "stereo": "configuration not stated", "A": -27.12, "B": -31.06}
{"compound": "CC1=C[C@@H](CC#N)[C@H](C(C)C)C[C@H]1CC(=O)N1CCN(C)CC1", "A": -63.34, "B": -7.233}
{"compound": "Cc1nc(CCCNC(=O)c2coc(CN3CCOCC3)c2)sc1C", "A": 3.793, "B": -2.185}
{"compound": "O=C(O)C(F)(F)F.[H][C@@]12CCN(CC(=O)NC)C[C@]1([H])CN(C(=O)c1ccc(C)nc1)C2", "A": -10.65, "B": -2.232}
{"compound": "CC(C)OCCN1CCC(N2CCN(C)C2=O)CC1", "A": 28.14, "B": 0.847}
{"compound": "CC(=O)c1c(O)n(C)c2ccc(F)cc12", "A": -30.92, "B": -33.57}
{"compound": "CC(=O)N1CCOCC(Cc2ccc3c(ccn3C)c2)C1", "stereo": "configuration not stated", "A": 22.78, "B": 11.65}
{"compound": "Fc1ccc2c(c1)nc1n2[C@@H](CNCc2nccs2)COC1", "A": 17.71, "B": 6.034}
{"compound": "CCN(Cc1noc(C)n1)C(=O)CCn1c(C)cc2ccccc21", "A": 18.08, "B": -17.45}
{"compound": "Cc1nn(C)c2nc(NC3CCNCC3)sc12", "A": -13.82, "B": 1.614}
{"compound": "Cc1nc(CN2CCN(Cc3cc4n(n3)CCNC4)CC2)cs1", "A": -13.64, "B": 13.07}
{"compound": "CS(=O)(=O)N1CCCC12CCN(Cc1ccoc1)CC2", "A": -55.44, "B": 19.51}
{"compound": "COc1ncccc1CNC1CCc2c(ccc(=O)n2CC2CC2)C1.O=C(O)C(F)(F)F.O=C(O)C(F)(F)F", "stereo": "configuration not stated", "A": 8.974, "B": -30.53}
{"compound": "CNc1nc2c(s1)C(c1cccc(F)c1F)CC(=O)N2", "stereo": "configuration not stated", "A": 1.051, "B": -1.056}
{"compound": "CCCS(=O)(=O)NC1CCN(c2nnc(C)c(C)c2C#N)CC1", "A": 4.061, "B": 6.833}
{"compound": "Cn1cc(C(=O)N2CCCC2c2ccc3c(c2)OCO3)ccc1=O", "stereo": "configuration not stated", "A": -2.194, "B": 2.598}
{"compound": "Fc1ccc(CN2CCC3(CCN(Cc4nccs4)CC3)C2)cc1.O=C(O)C(F)(F)F.O=C(O)C(F)(F)F", "A": -32.99, "B": 2.212}
{"compound": "CCCn1cc(C(=O)NC2CCN(CC(=O)NC3CC3)CC2)c(C)n1", "A": -36.05, "B": -32.44}
{"compound": "[H][C@]12CCN(S(=O)(=O)CC(C)C)CC[C@@]1([H])S(=O)(=O)CCN2C(C)=O", "A": -32.81, "B": -9.701}
{"compound": "CN1CCNC(Cc2ccc(-c3ccncc3)cc2)C1=O.Cl", "stereo": "configuration not stated", "A": -41.95, "B": -13.93}
{"compound": "Cc1ccc(OC2CCN(S(=O)(=O)N(C)C)CC2)nc1", "A": -13.5, "B": 13.35}

3 of the entries, repeated:

{"compound": "O=C(c1cc(Br)ccc1-n1cnnn1)N1CCCC1", "A": -19.09, "B": 2.818}
{"compound": "Cc1nn(C)c2nc(NC3CCNCC3)sc12", "A": -13.82, "B": 1.614}
{"compound": "CCCn1cc(C(=O)NC2CCN(CC(=O)NC3CC3)CC2)c(C)n1", "A": -36.05, "B": -32.44}